# About 10,000 (2.8%) of roughly 360,000 compounds were called active. Inconclusive means that the source gave no clear call. Such entries were picked first, then a sample of the others. Calls come from the whole dose curve; as a rule, active = well fitted inhibition curve with a large enough effect; inconclusive = small, poorly fitted or top-dose-only effect; inactive = flat fitted curve, though single readings scatter. Potencies beside an inconclusive call are fits to weak or partial responses and may not hold up.
# Amino acid sequences for entries named in this document (tags omitted).
# UniProt P53350, whole entry, looked up: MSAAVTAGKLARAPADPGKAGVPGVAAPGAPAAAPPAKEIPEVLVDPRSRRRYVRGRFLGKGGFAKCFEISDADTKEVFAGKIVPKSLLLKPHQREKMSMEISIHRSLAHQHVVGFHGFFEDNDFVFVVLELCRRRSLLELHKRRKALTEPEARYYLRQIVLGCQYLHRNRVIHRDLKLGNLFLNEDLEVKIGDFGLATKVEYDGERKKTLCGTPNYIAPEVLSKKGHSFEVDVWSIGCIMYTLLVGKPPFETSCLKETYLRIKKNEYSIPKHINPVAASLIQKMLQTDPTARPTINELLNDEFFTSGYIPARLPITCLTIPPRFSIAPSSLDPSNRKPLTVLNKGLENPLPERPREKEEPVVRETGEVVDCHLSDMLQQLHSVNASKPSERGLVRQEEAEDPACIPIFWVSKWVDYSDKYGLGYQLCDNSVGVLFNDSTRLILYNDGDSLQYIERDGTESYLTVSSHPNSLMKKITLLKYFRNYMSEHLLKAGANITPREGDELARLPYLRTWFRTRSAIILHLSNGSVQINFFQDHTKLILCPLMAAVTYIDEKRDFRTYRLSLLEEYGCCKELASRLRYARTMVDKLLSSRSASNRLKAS
# Target: Serine/threonine-protein kinase PLK1 (Homo sapiens) (UniProt P53350)
# Assay: qHTS for Inhibitors of PLK1-PDB (polo-like kinase 1 - polo-box domain): Primary Screen; note: nearly all actives have a fitted effect of over 65% in size; for max response, negative = inhibition: series mostly up to about 57 µM
# Details: Plk1 PBD binding of FITC phosphopeptide, fluorescence polarization
# % is set by controls: 0 for no effect and ±100 for the full control effect; potency is the fitted concentration of half-maximal effect.
Structure (SMILES),Potency,"max response, negative = inhibition"
COc1ccc(-c2c(C#Cc3ccsc3)c3ccccc3n2C)cc1,"inconclusive: 23.8 µM [inhibitor, partial curve]",
Cc1c(C(=O)NCc2ccc3c(c2)OCO3)oc2ccc(S(=O)(=O)N3CCCC3)cc12,"inconclusive: 29.9 µM [inhibitor, single point]",
COc1cccc(=O)c2c(C)oc(C)c12,"inconclusive: 18.9 µM [inhibitor, partial curve]",
COC(=O)c1c(NC(=O)/C=C/C(=O)O)sc(C)c1-c1ccc(C)c(C)c1,"inconclusive: 26.7 µM [inhibitor, partial curve]",
CC(C)c1nnc(NC(=O)Cc2ccc(Br)cc2)s1,"inconclusive: 29.9 µM [inhibitor, partial curve]",
CCc1nnc(NS(=O)(=O)c2ccc(NC(=S)NC(=O)c3cccs3)cc2)s1,active: 18.9 µM,
NC(=O)c1oc2ccccc2c1NC(=O)c1nc2ccccc2s1,,inactive: -1.3%
Nn1c(SCc2ccc(Br)cc2)nnc1-c1ccccn1,"inconclusive: 23.8 µM [inhibitor, partial curve]",
Cc1cccc(C(=O)n2c(=S)nc3ccccn32)c1,active: 23.8 µM,
C=CCSC(=S)NC1CCS(=O)(=O)C1 (stereo unspecified),"inconclusive: 26.7 µM [inhibitor, single point]",
CC(C)(CN1CCc2ccccc2C1)NS(=O)(=O)c1ccc(Cl)cc1,,inactive: -4.39%
O=[N+]([O-])c1cccc(-c2ccc3nnc(SCc4ccccn4)n3n2)c1,active: 23.8 µM,
CC1Cc2ccccc2N1C(=O)COC(=O)CCc1nc2ccccc2c(=O)[nH]1 (stereo unspecified),active: 4.23 µM,
CC(C)(C)C1=NN=C2c3ccccc3C(=O)C21 (stereo unspecified),"inconclusive: 26.7 µM [inhibitor, partial curve]",
O=C(CCN1CCC(c2ccccc2)C1)c1cccs1 (stereo unspecified),active: 21.2 µM,
CCOC(=O)c1c(-c2ccc(C)c(C)c2)csc1NC(=O)C1CC=CCC1C(=O)O (stereo unspecified),"inconclusive: 26.7 µM [inhibitor, single point]",
CC(C)(C)C(=O)Cn1ncc(Cl)c(Cl)c1=O,,inactive: -13.6%
O=C1NC(=S)N/C1=C/c1cccnc1,active: 23.8 µM,
O=C(NNc1ccc([N+](=O)[O-])cc1)Nc1ccccc1,"inconclusive: 29.9 µM [inhibitor, single point]",
COc1ccccc1NS(=O)(=O)c1ccc2oc(N)nc2c1,"inconclusive: 29.9 µM [inhibitor, partial curve]",
Cc1ccccc1-n1cc[nH]c1=S,,inconclusive: -30.1% [inhibitor]
Cc1cc(-c2ccc(C(C)C)c(S(=O)(=O)NCc3ccco3)c2)on1,"inconclusive: 15 µM [inhibitor, partial curve]",
NC(=O)c1cccn1Cc1ccccc1Cl,,inactive: 0.0207%

Structure (SMILES),Potency,"max response, negative = inhibition"
O=C(CCCNS(=O)(=O)c1ccc(Cl)c(Cl)c1)NCCc1ccccn1,"inconclusive: 26.7 µM [inhibitor, partial curve]",
CN(CCC#N)C(=S)NC(=O)c1ccc(S(=O)(=O)N2CCOCC2)cc1,"inconclusive: 26.7 µM [inhibitor, partial curve]",
COc1ccc(CNC(=O)C(c2cccs2)N(Cc2ccco2)C(=O)Cc2cccs2)cc1 (stereo unspecified),"inconclusive: 9.47 µM [inhibitor, partial curve]",
CCOC(=O)c1c(NC(=O)c2cccc([N+](=O)[O-])c2C(=O)O)sc2c1CCCC2,"inconclusive: 29.9 µM [inhibitor, partial curve]",
CCOc1ccc(-c2csc(Cn3c(CN4CCN(C)CC4)nc4ccccc4c3=O)n2)cc1,active: 23.8 µM,
C=CCN1C(=O)/C(=c2\sc3nc(=O)c(Cc4ccc(OC)c(OC)c4)nn3c2=O)c2ccccc21,active: 10.6 µM,
CCN(CC)C(=O)Cn1cc(C(=O)C(=O)N2CCN(c3ccc([N+](=O)[O-])cc3)CC2)c2ccccc21,,inactive: -14.7%
Cn1c(N)c(C(=O)NCc2ccccc2)sc1=S,active: 18.9 µM,
O=C(O)c1ccc2c(=O)[nH]c(CCl)nc2c1,,inconclusive: -30.7% [inhibitor]
O=C(/C=C1\C(=O)Nc2ccccc21)/C=C1\C(=O)Nc2ccccc21,active: 8.44 µM,
COC(=O)[C@@]12C[C@@H](CC(=O)N3CCN(C(=O)C4CC4)CC3)C(=O)N(CCc3ccc(OC)c(OC)c3)C1=CCC(C)(C)C2,,inactive: 3.44%
Cc1[nH]c2ccc(F)cc2c1CCN(Cc1ccncc1)C(=S)Nc1ccccc1,,inactive: 1.55%
C=CCOc1ccccc1CN(C(=O)CCl)c1ccc2c(c1)OCO2,"inconclusive: 29.9 µM [inhibitor, single point]",
Cc1cc(C)n2nc(S(=O)(=O)N(C)c3ccccc3)nc2n1,"inconclusive: 23.8 µM [inhibitor, partial curve]",
Cn1cc(C(=O)CCl)c2ccccc21,active: 23.8 µM,
Cc1nc(-c2ccc(F)cc2)c(CC(=O)Nc2ccc(C)c(S(=O)(=O)N3CCOCC3)c2)s1,"inconclusive: 37.7 µM [inhibitor, single point]",
CCC(Sc1nnnn1-c1ccccc1)C(=O)NC(C)c1ccccc1 (stereo unspecified),,inconclusive: -32.8% [inhibitor]
Oc1ccc(O)c(-c2cnns2)c1,"inconclusive: 33.6 µM [inhibitor, single point]",
Cc1ccc(C(=O)Nc2cccnc2)cc1[N+](=O)[O-],"inconclusive: 23.8 µM [inhibitor, single point]",
N#Cc1c(N)n[nH]c1-c1cc2c([nH]1)CCCC2,,inactive: 6.07%
OCCn1c(CSc2nc3ccccc3n2CCO)nc2ccccc21,"inconclusive: 8.44 µM [inhibitor, single point]",
Cn1cnnc1SCC(=O)Nc1ncc([N+](=O)[O-])s1,"inconclusive: 29.9 µM [inhibitor, single point]",
CC(C)C[C@@H](CN)NC(=O)c1nc[nH]c1C(=O)N[C@@H](C)C(=O)CNC[C@H](CC(C)C)NC(=O)c1nc[nH]c1C(=O)N[C@@H](Cc1ccccc1)C(=O)O,"inconclusive: 21.2 µM [inhibitor, single point]",

# Quoted at random: 3 compounds from above.
Structure (SMILES),Potency,"max response, negative = inhibition"
O=C(O)c1ccc2c(=O)[nH]c(CCl)nc2c1,,inconclusive: -30.7% [inhibitor]
Cn1c(N)c(C(=O)NCc2ccccc2)sc1=S,active: 18.9 µM,
Cn1cnnc1SCC(=O)Nc1ncc([N+](=O)[O-])s1,"inconclusive: 29.9 µM [inhibitor, single point]",

# — PubChem BioAssay AID720504 (National Center for Advancing Translational Sciences (NCATS), 2013)
